These are yes or no findings as the source states them, for the method shown. A result given as binding can be weak or reduced; the word gives no strength.
Biological target: pGBKT7-FpSae2 (Fusarium proliferatum)
Assay: two-hybrid; FpSae2 in pGBKT7 (GAL4 DNA-binding domain), FpFumB in pGADT7 (GAL4 activation domain), co-transformed into S. cerevisiae Y2H Gold; growth on QDO (SD/-Trp/-Leu/-His/-Ade)

pGADT7-FpFumB (from UniProt A0A1L7VE85) (enzyme)
binding: binds

Source: article PMC12196060
